From paper PMC5514503
These are yes or no findings as the source states them, for the method shown. Binding seen in cells or lysates may run through a third protein. Some entries that bind do so weakly or less than the wild type.

Protein sequences, listed by entry. Tags and fused reporters are not part of them. Lines headed by an entry give the natural chain unless they say otherwise; changes in a name come on top. Residues count along the entry.
UniProt P35222: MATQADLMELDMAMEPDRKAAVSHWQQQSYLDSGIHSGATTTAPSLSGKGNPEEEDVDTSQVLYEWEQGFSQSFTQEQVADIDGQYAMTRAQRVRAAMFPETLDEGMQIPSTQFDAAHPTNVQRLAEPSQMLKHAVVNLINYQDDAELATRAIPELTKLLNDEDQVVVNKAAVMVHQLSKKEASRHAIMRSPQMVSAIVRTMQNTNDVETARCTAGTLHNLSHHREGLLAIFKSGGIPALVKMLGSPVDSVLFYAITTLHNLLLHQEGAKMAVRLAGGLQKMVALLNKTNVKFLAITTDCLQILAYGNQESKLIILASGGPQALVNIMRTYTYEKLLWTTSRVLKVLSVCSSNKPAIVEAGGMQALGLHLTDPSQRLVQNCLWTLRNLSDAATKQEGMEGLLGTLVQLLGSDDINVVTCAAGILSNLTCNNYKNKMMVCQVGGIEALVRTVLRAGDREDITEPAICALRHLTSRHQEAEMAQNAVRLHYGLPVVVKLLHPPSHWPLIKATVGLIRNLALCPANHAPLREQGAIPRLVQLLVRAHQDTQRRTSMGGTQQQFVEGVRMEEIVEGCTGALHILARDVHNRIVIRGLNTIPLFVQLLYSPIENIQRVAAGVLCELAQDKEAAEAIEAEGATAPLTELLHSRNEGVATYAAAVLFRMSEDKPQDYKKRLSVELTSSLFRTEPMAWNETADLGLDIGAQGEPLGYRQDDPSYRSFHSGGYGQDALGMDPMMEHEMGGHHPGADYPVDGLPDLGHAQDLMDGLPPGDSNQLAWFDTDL
UniProt Q9NQB0: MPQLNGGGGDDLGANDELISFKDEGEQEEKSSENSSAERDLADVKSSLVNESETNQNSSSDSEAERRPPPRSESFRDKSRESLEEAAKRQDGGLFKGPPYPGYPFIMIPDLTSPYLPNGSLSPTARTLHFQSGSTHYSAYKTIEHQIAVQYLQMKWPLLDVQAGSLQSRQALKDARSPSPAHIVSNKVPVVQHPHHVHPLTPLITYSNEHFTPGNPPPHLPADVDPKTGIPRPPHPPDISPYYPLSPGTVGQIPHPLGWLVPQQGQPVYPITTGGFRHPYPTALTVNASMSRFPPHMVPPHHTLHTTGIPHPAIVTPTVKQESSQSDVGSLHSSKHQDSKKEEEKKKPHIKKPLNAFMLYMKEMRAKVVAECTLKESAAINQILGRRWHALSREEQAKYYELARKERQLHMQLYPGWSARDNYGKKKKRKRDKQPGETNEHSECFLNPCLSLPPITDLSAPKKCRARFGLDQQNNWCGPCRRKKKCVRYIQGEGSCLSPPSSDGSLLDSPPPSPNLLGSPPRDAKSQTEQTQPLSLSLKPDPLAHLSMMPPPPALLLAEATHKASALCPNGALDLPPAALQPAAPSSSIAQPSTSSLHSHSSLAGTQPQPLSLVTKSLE
UniProt Q9BZS1, residues 1-417: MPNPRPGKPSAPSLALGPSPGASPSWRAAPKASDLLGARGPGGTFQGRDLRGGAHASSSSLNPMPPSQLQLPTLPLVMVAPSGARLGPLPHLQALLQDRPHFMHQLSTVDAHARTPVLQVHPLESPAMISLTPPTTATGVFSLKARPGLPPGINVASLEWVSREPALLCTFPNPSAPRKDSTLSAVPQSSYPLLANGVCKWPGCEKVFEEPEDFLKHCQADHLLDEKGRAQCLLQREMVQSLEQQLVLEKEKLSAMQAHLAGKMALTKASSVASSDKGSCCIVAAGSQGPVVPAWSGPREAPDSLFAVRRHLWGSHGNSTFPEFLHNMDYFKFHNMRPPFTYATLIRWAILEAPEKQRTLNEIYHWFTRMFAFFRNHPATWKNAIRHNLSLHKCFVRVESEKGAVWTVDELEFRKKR

Columns and labels:
Assay in all cases: co-IP; HEK-293T cells co-transfected with the indicated plasmids; nuclear protein extracts incubated with anti-FLAG M2 or anti-c-Myc magnetic beads at 4 °C overnight, washed with TBS, eluted, western blot; in Fig. 6c with or without co-expressed FOXP3
Flag-β-catenin = Flag-β-catenin (UniProt P35222)
Myc-TCF4 = Myc-TCF4 (UniProt Q9NQB0)
Flag-FOXP3 (human) = Flag-FOXP3 (human) (UniProt Q9BZS1)
Myc-FOXP3 (human) = Myc-FOXP3 (human) (UniProt Q9BZS1)

FOXP3 (from UniProt Q9BZS1-1 1-417)
binding (Flag-β-catenin): binds
binding (Myc-TCF4): binds

TCF4 (from UniProt Q9NQB0 1-619)
binding (Flag-FOXP3 (human)): binds

β-catenin (from UniProt P35222 1-781)
binding (Myc-FOXP3 (human)): binds
